Assay results reported in patent US20190374533A1, “COMPOUNDS AND METHODS FOR INHIBITING NHE-MEDIATED ANTIPORT IN THE TREATMENT OF DISORDERS ASSOCIATED WITH FLUID RETENTION OR SALT OVERLOAD AND GASTROINTESTINAL TRACT DISORDERS” (Ardelyx, Inc., priority 2008, published 2019).
At least one compound was matched to its structure with a doubt left.

System: fecal water content
Assay: Pharmacodynamic model: dose dependent effect of test compound on fecal water content
Assay type: in vivo, rat
Conditions: rats, several dose levels (FIG. 4)

CN1Cc2c(Cl)cc(Cl)cc2C(c2cccc(S(=O)(=O)NCCOCCOCCOCCNC(=O)C(O)C(O)C(=O)NCCOCCOCCOCCNS(=O)(=O)c3cccc(C4CN(C)Cc5c(Cl)cc(Cl)cc54)c3)c2)C1 (stereo not shown) [Example 87, N1,N4-bis(2-(2-(2-(2-(3-(6,8-dichloro-2-methyl-1,2,34-tetrahydroisoquinolin-4-yl)phenylsulfonamido)ethoxy)ethoxy)ethoxy)ethyl)-2,3-dihydroxysuccinamide]
fecal water content: increased significantly and dose dependently
